# Results taken from the supplement of paper PMC6411743.
# By UniProt entry, the sequences of proteins in these tests, tags left out. Where a name states a change or a piece, a line headed by the entry shows the natural chain unless it says otherwise.
# UniProt Q15223: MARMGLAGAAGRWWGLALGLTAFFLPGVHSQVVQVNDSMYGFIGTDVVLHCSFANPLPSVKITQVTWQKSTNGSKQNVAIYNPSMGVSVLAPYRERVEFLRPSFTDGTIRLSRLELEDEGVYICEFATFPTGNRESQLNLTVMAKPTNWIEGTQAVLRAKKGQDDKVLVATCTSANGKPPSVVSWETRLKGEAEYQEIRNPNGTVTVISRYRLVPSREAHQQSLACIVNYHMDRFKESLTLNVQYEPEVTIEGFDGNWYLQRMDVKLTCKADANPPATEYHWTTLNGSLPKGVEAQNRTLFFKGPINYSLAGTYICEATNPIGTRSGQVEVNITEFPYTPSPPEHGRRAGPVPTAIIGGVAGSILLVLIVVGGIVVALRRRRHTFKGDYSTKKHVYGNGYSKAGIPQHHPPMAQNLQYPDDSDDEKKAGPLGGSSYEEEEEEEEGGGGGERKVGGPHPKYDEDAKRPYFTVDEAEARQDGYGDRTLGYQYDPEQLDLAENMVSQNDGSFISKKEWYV
# UniProt Q14687: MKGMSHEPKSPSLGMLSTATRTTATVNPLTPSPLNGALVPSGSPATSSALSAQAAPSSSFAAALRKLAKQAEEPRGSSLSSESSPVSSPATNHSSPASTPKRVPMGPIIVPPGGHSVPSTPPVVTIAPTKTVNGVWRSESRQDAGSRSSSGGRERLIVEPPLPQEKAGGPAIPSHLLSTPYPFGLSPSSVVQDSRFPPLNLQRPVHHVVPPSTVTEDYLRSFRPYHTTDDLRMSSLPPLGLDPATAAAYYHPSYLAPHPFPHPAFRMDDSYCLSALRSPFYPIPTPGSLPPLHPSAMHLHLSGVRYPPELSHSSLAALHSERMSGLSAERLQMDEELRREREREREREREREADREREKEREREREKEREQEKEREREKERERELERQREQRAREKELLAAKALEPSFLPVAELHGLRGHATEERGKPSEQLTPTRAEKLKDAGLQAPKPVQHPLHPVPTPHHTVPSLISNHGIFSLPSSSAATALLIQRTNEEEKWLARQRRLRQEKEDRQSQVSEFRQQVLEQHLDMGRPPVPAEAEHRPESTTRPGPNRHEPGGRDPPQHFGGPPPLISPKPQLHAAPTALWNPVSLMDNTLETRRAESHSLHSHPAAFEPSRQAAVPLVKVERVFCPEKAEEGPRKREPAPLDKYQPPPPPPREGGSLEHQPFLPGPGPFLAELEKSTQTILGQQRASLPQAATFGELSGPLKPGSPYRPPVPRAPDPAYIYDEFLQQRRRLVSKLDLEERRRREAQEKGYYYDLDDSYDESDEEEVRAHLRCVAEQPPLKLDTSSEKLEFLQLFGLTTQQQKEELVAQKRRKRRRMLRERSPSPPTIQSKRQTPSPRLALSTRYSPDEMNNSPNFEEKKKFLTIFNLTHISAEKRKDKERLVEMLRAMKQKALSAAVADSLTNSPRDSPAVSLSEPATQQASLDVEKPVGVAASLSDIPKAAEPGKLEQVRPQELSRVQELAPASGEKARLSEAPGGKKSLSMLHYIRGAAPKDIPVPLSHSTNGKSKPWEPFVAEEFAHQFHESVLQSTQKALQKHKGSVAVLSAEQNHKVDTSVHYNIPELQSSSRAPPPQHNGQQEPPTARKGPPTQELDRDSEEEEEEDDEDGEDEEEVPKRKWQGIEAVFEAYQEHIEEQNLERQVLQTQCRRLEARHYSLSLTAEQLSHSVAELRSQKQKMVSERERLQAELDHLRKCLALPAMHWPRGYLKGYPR
# UniProt Q2PPJ7: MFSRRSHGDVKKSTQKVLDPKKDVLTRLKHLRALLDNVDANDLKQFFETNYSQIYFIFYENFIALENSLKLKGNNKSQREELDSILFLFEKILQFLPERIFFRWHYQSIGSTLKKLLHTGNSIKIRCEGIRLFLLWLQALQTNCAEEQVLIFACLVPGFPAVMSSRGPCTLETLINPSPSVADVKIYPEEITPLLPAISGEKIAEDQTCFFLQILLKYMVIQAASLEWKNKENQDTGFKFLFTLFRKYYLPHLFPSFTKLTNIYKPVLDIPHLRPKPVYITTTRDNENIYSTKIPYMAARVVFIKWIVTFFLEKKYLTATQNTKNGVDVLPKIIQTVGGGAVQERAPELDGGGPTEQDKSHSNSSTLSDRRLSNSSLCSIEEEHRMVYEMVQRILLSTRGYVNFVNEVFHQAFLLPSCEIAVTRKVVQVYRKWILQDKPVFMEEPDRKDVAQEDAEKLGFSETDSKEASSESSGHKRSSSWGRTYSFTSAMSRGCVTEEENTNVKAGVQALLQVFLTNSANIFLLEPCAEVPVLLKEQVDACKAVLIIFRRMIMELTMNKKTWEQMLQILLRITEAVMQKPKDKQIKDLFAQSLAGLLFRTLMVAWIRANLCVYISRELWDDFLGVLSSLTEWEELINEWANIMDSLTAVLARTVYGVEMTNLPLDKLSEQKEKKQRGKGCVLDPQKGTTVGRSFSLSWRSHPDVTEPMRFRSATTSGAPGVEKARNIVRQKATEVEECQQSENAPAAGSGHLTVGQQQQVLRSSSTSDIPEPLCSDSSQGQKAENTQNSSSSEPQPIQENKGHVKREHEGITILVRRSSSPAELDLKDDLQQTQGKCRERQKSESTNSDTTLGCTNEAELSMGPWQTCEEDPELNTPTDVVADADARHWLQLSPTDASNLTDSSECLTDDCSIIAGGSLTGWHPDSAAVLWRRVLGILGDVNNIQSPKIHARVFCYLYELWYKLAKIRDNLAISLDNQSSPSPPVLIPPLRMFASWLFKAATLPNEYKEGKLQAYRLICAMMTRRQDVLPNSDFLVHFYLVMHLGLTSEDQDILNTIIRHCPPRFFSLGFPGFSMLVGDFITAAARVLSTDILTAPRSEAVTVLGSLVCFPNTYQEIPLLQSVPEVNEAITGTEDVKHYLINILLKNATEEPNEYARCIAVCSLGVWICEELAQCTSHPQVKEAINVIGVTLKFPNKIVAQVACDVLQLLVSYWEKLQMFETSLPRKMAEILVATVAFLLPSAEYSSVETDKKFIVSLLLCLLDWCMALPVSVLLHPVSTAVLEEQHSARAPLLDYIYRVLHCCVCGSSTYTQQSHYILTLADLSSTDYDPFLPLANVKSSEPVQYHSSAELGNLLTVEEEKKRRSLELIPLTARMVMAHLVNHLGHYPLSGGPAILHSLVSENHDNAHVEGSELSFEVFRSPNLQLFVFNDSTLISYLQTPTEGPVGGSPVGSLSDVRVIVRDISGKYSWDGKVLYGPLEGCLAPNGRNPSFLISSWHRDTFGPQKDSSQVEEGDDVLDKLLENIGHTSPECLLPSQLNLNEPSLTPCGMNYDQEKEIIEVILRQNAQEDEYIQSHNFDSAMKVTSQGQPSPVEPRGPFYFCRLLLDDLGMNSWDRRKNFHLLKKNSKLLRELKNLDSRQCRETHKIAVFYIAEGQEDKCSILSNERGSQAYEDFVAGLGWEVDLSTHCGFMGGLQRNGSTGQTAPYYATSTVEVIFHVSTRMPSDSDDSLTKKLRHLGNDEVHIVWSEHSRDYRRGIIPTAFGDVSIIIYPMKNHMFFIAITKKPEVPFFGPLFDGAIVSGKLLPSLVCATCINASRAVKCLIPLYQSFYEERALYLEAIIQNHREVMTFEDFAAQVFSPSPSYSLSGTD
# UniProt Q2NKX9: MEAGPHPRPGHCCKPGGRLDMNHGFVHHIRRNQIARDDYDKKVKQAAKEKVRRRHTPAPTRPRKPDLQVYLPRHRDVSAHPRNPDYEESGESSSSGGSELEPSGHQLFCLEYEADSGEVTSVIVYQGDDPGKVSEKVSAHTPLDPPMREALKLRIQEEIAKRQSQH
# UniProt Q3B7T1: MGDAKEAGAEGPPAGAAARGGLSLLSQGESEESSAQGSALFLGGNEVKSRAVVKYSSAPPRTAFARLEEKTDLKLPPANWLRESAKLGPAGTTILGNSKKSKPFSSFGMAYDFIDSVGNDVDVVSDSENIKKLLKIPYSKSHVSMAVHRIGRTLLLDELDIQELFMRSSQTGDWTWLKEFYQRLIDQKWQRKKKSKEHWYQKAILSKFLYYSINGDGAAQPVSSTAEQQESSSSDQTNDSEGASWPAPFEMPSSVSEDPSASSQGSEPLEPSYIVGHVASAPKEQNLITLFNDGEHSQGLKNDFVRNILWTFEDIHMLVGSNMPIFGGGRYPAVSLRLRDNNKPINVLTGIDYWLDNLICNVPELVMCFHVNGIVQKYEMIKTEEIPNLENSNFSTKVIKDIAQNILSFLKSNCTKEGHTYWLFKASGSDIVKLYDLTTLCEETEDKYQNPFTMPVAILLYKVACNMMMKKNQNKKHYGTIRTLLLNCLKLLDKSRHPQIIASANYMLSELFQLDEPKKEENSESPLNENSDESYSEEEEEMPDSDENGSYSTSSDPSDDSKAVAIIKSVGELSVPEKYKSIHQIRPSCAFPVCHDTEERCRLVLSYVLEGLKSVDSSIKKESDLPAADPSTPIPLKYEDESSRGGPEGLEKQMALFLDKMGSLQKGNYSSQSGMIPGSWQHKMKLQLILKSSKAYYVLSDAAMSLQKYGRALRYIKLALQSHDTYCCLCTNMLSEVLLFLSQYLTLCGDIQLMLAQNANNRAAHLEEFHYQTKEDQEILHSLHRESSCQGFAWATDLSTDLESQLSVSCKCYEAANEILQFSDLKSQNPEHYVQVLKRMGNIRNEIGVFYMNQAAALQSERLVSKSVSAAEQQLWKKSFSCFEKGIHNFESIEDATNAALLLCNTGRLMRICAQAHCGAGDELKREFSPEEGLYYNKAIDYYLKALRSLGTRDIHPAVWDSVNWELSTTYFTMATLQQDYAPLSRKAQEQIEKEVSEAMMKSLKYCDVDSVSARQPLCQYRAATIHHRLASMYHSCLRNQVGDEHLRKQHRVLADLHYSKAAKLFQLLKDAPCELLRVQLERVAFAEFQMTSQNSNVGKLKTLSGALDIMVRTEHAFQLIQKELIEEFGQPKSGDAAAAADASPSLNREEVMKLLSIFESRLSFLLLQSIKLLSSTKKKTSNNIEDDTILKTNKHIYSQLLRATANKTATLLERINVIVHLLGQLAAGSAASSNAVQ
# UniProt Q15363: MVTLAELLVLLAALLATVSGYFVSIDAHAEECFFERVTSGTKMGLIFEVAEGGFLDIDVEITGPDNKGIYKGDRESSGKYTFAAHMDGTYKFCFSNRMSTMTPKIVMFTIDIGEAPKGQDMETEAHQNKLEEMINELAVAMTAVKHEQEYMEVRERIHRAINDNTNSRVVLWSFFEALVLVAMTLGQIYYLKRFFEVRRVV
# UniProt Q14CB8: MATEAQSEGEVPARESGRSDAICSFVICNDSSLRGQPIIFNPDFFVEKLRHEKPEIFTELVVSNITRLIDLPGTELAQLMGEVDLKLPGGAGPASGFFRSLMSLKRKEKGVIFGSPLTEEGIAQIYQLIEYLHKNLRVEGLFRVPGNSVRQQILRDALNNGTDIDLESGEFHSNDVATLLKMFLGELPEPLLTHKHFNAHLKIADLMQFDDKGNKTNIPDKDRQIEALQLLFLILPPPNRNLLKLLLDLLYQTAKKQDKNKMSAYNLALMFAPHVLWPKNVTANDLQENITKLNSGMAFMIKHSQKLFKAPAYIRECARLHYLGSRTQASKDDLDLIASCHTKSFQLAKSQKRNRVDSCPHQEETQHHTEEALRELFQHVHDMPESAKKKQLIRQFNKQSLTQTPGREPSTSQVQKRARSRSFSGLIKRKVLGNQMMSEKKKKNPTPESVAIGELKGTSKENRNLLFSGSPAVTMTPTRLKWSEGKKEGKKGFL
# UniProt Q4G148: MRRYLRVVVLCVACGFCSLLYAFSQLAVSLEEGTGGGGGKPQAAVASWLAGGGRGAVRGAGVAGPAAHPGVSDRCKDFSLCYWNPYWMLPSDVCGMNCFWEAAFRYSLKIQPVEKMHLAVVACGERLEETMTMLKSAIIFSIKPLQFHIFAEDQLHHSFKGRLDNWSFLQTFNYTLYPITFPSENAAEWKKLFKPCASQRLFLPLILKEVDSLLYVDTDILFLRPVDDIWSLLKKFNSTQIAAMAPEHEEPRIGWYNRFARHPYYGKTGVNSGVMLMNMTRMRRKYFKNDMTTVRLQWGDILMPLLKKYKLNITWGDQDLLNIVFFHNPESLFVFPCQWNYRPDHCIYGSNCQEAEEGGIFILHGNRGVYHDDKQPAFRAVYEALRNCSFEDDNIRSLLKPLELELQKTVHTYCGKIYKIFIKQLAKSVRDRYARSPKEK
# UniProt Q15084: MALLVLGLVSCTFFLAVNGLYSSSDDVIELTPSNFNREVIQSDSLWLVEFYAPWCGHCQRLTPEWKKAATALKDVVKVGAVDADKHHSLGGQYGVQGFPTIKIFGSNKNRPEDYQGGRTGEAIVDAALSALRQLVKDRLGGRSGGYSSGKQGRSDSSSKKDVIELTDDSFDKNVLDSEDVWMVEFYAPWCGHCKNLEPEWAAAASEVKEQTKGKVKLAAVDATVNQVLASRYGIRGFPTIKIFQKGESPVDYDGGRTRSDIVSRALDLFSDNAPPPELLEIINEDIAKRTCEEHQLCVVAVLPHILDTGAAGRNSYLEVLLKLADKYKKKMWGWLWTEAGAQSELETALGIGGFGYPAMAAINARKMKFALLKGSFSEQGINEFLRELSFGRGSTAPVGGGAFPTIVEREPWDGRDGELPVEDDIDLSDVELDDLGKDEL
# ± gives the standard deviation of the averaged measurements. The entries are a selection whose mix differs from that of the whole data set.
# Compound: Nc1ncnc2c1ncn2[C@@H]1O[C@H](COP(=O)(O)OP(=O)(O)OP(=O)(O)O)[C@@H](O)[C@H]1O [adenosine triphosphate]
# Assay: NP40-soluble protein abundance relative to vehicle (solubility fold change) (ratio); higher = more soluble protein in presence of ATP
# Summary of the method: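 Across three independent experiments, values are fold changes against the detergent-processed vehicle for each replicate, based on vsn-normalised intensities. The samples were Jurkat crude lysate treated with eight concentrations (0.1 to 10 mM) for 10 min at room temperature and then 3 min at 37 °C. Lysate was solubilised with 0.8% NP40 and benzonase, ultracentrifuged, and the supernatant analysed by TMT-labelled LC-MS/MS.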
Target,NP40-soluble protein abundance (concentration: 1mM),NP40-soluble protein abundance (concentration: 2mM),NP40-soluble protein abundance (concentration: 4mM),NP40-soluble protein abundance (concentration: 6mM),NP40-soluble protein abundance (concentration: 8mM),NP40-soluble protein abundance (concentration: 10mM)
UniProt Q15223,0.926 ± 0.087,0.91 ± 0.071,0.952 ± 0.038,0.983 ± 0.061,0.901 ± 0.053,0.88 ± 0.086
UniProt Q15796 and related entries,0.953 ± 0.024,0.975 ± 0.04,0.971 ± 0.025,0.973 ± 0.036,0.961 ± 0.03,0.944 ± 0.048
UBE3C (UniProt Q15386),1.03 ± 0.18,0.968 ± 0.075,0.984 ± 0.071,0.883 ± 0.13,0.966 ± 0.037,0.987 ± 0.017
UniProt Q16539 and related entries,0.983 ± 0.062,0.973 ± 0.072,0.986 ± 0.022,0.923 ± 0.11,0.98 ± 0.057,0.958 ± 0.037
DHX34 (UniProt Q14147),1.29 ± 0.25,1.38 ± 0.21,1.28 ± 0.23,1.38 ± 0.14,1.34 ± 0.17,1.38 ± 0.17
UniProt Q14687 and related entries,0.957 ± 0.05,0.941 ± 0.056,0.937 ± 0.041,0.974 ± 0.12,0.932 ± 0.046,0.944 ± 0.05
TFDP1 (UniProt Q14186),0.997 ± 0.07,0.974 ± 0.073,1 ± 0.025,1.03 ± 0.038,0.969 ± 0.11,0.981 ± 0.067
HAGH (UniProt Q16775),0.966 ± 0.062,0.968 ± 0.024,0.944 ± 0.054,0.923 ± 0.11,0.951 ± 0.023,0.9664 ± 0.009
UniProt Q2PPJ7 and related entries,1.39 ± 0.58,1.28 ± 0.51,1.18 ± 0.23,1.41 ± 0.76,1.03 ± 0.064,1.07 ± 0.15
C2orf68 (UniProt Q2NKX9),0.951 ± 0.047,0.943 ± 0.026,1.01 ± 0.043,0.978 ± 0.016,0.944 ± 0.042,0.94 ± 0.042
UniProt Q3B7T1,0.994 ± 0.022,0.99 ± 0.03,1.03 ± 0.033,0.986 ± 0.047,1.03 ± 0.034,1.04 ± 0.018
UniProt Q14680 and related entries,1.21 ± 0.078,1.3 ± 0.071,1.23 ± 0.055,1.51 ± 0.26,1.33 ± 0.13,1.44 ± 0.17
TMED2 (UniProt Q15363),1.04 ± 0.18,1.01 ± 0.18,0.978 ± 0.13,0.921 ± 0.2,1.05 ± 0.13,0.967 ± 0.13
TTLL12 (UniProt Q14166),1.07 ± 0.056,1.04 ± 0.061,1.03 ± 0.055,0.981 ± 0.098,1.05 ± 0.067,1.01 ± 0.059
UniProt Q15424 and related entries,0.989 ± 0.082,0.979 ± 0.069,1.03 ± 0.098,1.23 ± 0.12,1.21 ± 0.096,1.32 ± 0.085
PPP1R7 (UniProt Q15435),0.95 ± 0.04,0.935 ± 0.031,0.903 ± 0.026,0.911 ± 0.078,0.91 ± 0.035,0.89 ± 0.036
UniProt Q3ZCQ8 and related entries,1 ± 0.082,0.978 ± 0.078,0.997 ± 0.073,0.97 ± 0.066,0.993 ± 0.081,0.986 ± 0.074
DYNC1H1 (UniProt Q14204),1.08 ± 0.12,0.997 ± 0.069,0.99 ± 0.054,0.933 ± 0.044,1.06 ± 0.011,0.992 ± 0.047
UniProt Q15642-2|Q15642-3|Q15642-4|W4VSQ9,0.958 ± 0.066,0.969 ± 0.084,0.998 ± 0.058,0.979 ± 0.078,0.961 ± 0.021,0.9861 ± 0.0047
SLC1A5 (UniProt Q15758),0.934 ± 0.061,0.917 ± 0.026,0.925 ± 0.043,0.902 ± 0.049,0.882 ± 0.025,0.897 ± 0.026
ARHGEF6 (UniProt Q15052),0.965 ± 0.038,0.981 ± 0.019,0.968 ± 0.011,0.975 ± 0.048,0.995 ± 0.021,0.977 ± 0.026
UniProt Q14693 and related entries,1.03 ± 0.11,1.02 ± 0.076,0.987 ± 0.042,0.934 ± 0.1,0.967 ± 0.06,0.983 ± 0.048
UniProt Q14CB8 and related entries,1.26 ± 0.11,1.25 ± 0.088,1.25 ± 0.13,1.28 ± 0.093,1.24 ± 0.1,1.3 ± 0.13
UniProt Q14865,1.01 ± 0.069,1 ± 0.12,1.04 ± 0.15,1.04 ± 0.15,0.994 ± 0.12,1.03 ± 0.12
PMVK (UniProt Q15126),0.955 ± 0.019,0.976 ± 0.025,0.939 ± 0.038,0.932 ± 0.044,0.946 ± 0.047,0.946 ± 0.04
UniProt Q4G148 and related entries,0.881 ± 0.056,0.9 ± 0.011,0.9022 ± 0.0037,0.854 ± 0.081,0.863 ± 0.066,0.894 ± 0.014
TSR1 (UniProt Q2NL82),0.869 ± 0.031,0.866 ± 0.078,0.917 ± 0.071,0.979 ± 0.095,1.06 ± 0.11,1.13 ± 0.12
ALG11 (UniProt Q2TAA5),0.919 ± 0.17,0.973 ± 0.16,0.982 ± 0.09,0.915 ± 0.18,0.972 ± 0.13,1.01 ± 0.12
UniProt Q2M1P5,1.08 ± 0.3,0.945 ± 0.2,0.946 ± 0.2,0.826 ± 0.2,1 ± 0.085,0.964 ± 0.11
UniProt Q15084 and related entries,0.874 ± 0.033,0.876 ± 0.046,0.876 ± 0.024,0.903 ± 0.021,0.8855 ± 0.0043,0.895 ± 0.043

# Looked up one by one from the entries so far (2):
Target,NP40-soluble protein abundance (concentration: 1mM),NP40-soluble protein abundance (concentration: 2mM),NP40-soluble protein abundance (concentration: 4mM),NP40-soluble protein abundance (concentration: 6mM),NP40-soluble protein abundance (concentration: 8mM),NP40-soluble protein abundance (concentration: 10mM)
UniProt Q15796 and related entries,0.953 ± 0.024,0.975 ± 0.04,0.971 ± 0.025,0.973 ± 0.036,0.961 ± 0.03,0.944 ± 0.048
UniProt Q2M1P5,1.08 ± 0.3,0.945 ± 0.2,0.946 ± 0.2,0.826 ± 0.2,1 ± 0.085,0.964 ± 0.11
